Data as given in patent US12303491B2, “Econazole nitrate medical patch and methods of use thereof” (Temple University-Of The Commonwealth System of Higher …, priority 2017, dated 2025).
At least one compound was matched to its structure with a doubt left.

Assay: Crystallization in patch films (visual observation)
Format: physicochemical
Description: The drug (EN) and the PEs, thiourea (TU) and propylene glycol (PG), were dissolved or uniformly dispersed in the pressure sensitive adhesive(s) (PSAs), and spread onto a release liner. The drug (EN) and the nail PE (TU) were weighed out in a glass bottle and dissolved in solvent (methanol) and vortexed for 1 min. Then PG was weighed and added as solubilizer for EN and plasticizer for the patch. The solution was vortexed with the methanol as solvent until a single phase was obtained. Afterwards, the hydrophobic plasticizers triethyl citrate and hydrophilic polymer polyvinylpyrrolidone were weighed and mixed with the solvents prior to addition of PG. Finally the polymer was weighed out into the glass bottle and vortexed for 5 min to form a homogenous mixture. The formulae for the patch include but are not limited to those in Table 3. The bottles were then placed on the bottle roller and mixed overnight at medium speed to complete the mixing and remove the air bubbles generated during vortexing the polymer. […]
The percentage of TU was maintained at a concentration off 1%. Three concentrations of EN (1% w/w, 2.5% w/w and 5% w/w) and three concentrations of PG (5% w/w, 10% w/w and 20% w/w) were evaluated. […] Then according to the EN and PG concentration determined from the DURO-TAK® 87-4098 films, fabricated patches using acrylate grades DURO-TAK® 87-2287, DURO-TAK® 87-4287 and DURO-TAK® 87-9301. […]

NC(N)=S [TU, thiourea]
crystallization in film (acrylate matrix, 2.5% and 5% TU load): crystallizes out | crystallization in film (films with 1% TU): did not show any crystallization
